In the supplement of paper PMC3334620:
Whole data set: some 33,000 sequences, median “E-score (-0.5 to 0.5)” near -0.016, cut for the highest 2% near 0.3. Some of the results follow.

Target: T1, Yer184c (UniProt P39961)
T1 sequence: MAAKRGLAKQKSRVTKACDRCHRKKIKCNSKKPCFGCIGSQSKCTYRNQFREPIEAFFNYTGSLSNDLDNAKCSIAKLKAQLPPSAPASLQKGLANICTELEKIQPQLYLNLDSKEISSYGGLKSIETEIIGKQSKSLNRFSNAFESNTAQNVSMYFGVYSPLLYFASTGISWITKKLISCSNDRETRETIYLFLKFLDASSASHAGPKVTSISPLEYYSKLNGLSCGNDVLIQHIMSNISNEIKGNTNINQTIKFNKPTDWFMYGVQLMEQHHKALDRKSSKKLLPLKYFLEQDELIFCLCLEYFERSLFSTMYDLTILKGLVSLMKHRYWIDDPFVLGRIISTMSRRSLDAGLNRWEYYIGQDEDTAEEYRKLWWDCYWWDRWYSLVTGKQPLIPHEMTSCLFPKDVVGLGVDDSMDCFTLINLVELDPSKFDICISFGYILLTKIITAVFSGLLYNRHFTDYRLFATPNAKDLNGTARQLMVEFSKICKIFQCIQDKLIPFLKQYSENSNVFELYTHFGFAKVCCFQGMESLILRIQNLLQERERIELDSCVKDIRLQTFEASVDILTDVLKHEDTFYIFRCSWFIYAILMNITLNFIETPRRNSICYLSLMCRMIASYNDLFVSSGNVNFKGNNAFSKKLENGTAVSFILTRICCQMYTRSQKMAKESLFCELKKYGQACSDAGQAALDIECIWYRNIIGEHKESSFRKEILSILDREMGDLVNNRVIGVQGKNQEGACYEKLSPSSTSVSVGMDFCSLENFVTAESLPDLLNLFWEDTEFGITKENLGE
Assay: PBM E-score (8-mer binding enrichment) (E-score (-0.5 to 0.5)); higher = stronger / more preferred TF binding
Details: protein concentration: 100 nM; construct: GST-full length
Summary of the method: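 Masliner-normalised scans of fluorescent anti-GST signal were the basis for scoring. That signal came from GST-tagged yeast transcription factors applied at about 100-200 nM to double-stranded universal all-10-mer Agilent arrays on fresh or once-stripped slides. Each ungapped eight-base word, pooled with its reverse complement, received an E-score from the Universal PBM Analysis Suite.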

| Sequence | PBM E-score |
| --- | --- |
| TAAGGGCA | 0.0258 |
| CAATCATA | 0.138 |
| ATCGGTAG | 0.141 |
| ACCAGGGC | -0.2 |
| AAGTTCCA | -0.106 |
| ATAGTTTG | 0.0884 |
| CAAGGGCC | -0.27 |
| AGCCACGC | -0.126 |
| TCCCCCCA | -0.377 |
| CAAATGAA | 0.189 |
| AATCCTAG | 0.0878 |
| GCCTTGAA | -0.133 |
| ATGCGAGG | -0.122 |
| GCGGTTTA | 0.0396 |
| ATGCGATA | 0.0577 |
| CCCGCAGA | 0.08 |
| AAAACCCC | -0.218 |
| TCTACACA | -0.0166 |
| ATGGCTCC | -0.102 |
| CCCGGTCG | 0.0849 |
| AGCTGAGA | -0.0518 |
| AGCTAGAA | 0.00279 |
| GGACGACC | -0.0909 |
| CAGCAACG | 0.222 |
| AAACGTTC | -0.034 |

| Sequence | PBM E-score |
| --- | --- |
| AAATTGCC | 0.168 |
| GAGGCTCC | -0.045 |
| TAAAGTTA | 0.212 |
| CCGCGACC | -0.0489 |
| CGAGCTAC | -0.077 |
| TACGGTCA | 0.0814 |
| AGGTTGCG | -0.212 |
| ACCGTTGC | -0.0405 |
| TCGCGGCA | 0.068 |
| CCTACGGC | -0.00822 |
| CACGACTG | -0.288 |
| ATGCGATC | 0.0208 |
| CATTAATC | 0.0889 |
| GGAGGTCA | -0.24 |
| AGGACCAT | -0.148 |
| GATCATAA | 0.11 |
| AAACATAC | -0.0272 |
| AGTCCTAC | 0.0339 |
| GCGAACCA | 0.0843 |
| CCACGCAG | -0.0702 |
| ATGAAAGG | -0.0293 |
| AATTATAA | 0.216 |
| TACCTTGA | 0.117 |
| AAAGATGC | -0.0567 |
| ATACCGAT | 0.11 |

Shown with tabs: entries from further up
Sequence	PBM E-score
CAATCATA	0.138
ATCGGTAG	0.141
ACCAGGGC	-0.2
AAGTTCCA	-0.106
ATAGTTTG	0.0884
CAAGGGCC	-0.27
AGCCACGC	-0.126
TCCCCCCA	-0.377
CAAATGAA	0.189
AATCCTAG	0.0878
GCCTTGAA	-0.133
ATGCGAGG	-0.122
GCGGTTTA	0.0396
ATGCGATA	0.0577
CCCGCAGA	0.08
AAAACCCC	-0.218
TCTACACA	-0.0166
ATGGCTCC	-0.102
CCCGGTCG	0.0849
AGCTGAGA	-0.0518
AGCTAGAA	0.00279
GGACGACC	-0.0909
CAGCAACG	0.222
AAACGTTC	-0.034
AAATTGCC	0.168
GAGGCTCC	-0.045
TAAAGTTA	0.212
CCGCGACC	-0.0489
CGAGCTAC	-0.077
TACGGTCA	0.0814
AGGTTGCG	-0.212
ACCGTTGC	-0.0405
TCGCGGCA	0.068
CCTACGGC	-0.00822
CACGACTG	-0.288
ATGCGATC	0.0208
CATTAATC	0.0889
GGAGGTCA	-0.24
AGGACCAT	-0.148
GATCATAA	0.11
AAACATAC	-0.0272
AGTCCTAC	0.0339
GCGAACCA	0.0843
CCACGCAG	-0.0702
ATGAAAGG	-0.0293
AATTATAA	0.216
TACCTTGA	0.117
AAAGATGC	-0.0567
ATACCGAT	0.11

Later entries.

| Sequence | PBM E-score |
| --- | --- |
| TAAGAAGA | 0.232 |
| ACCATACT | -0.0084 |
| CGACTCCC | -0.0756 |
| CTAATAGC | -0.155 |
| AGTATGGG | -0.138 |
| AAATAGGC | 0.066 |
| ATGTCAAG | 0.00737 |
| GAAGACCC | -0.23 |
| TAAATGGA | 0.138 |
| CCCAAATA | -0.0671 |
| GAGGCGCA | -0.164 |
| AAGTGCGC | -0.0101 |
| GTATAAAC | 0.256 |
| CATAAGAA | 0.263 |
| GGAGCCTA | 0.0783 |
| ATACATAG | 0.0797 |
| CATGACAG | -0.0479 |
| AACTTCAA | 0.166 |
| ATAAAACC | -0.0255 |
| CTACGCGA | -0.0696 |
| ATAAGAGA | 0.258 |
| GTGAAATA | 0.00219 |
| GGACACCC | -0.23 |
| GCAAGCGC | -0.0605 |
| AAATGAGT | 0.137 |

| Sequence | PBM E-score |
| --- | --- |
| ACGAAAGT | 0.041 |
| AACCAATC | 0.23 |
| AAGCGAGC | 0.062 |
| TGGACCCA | -0.178 |
| TCACGGGA | 0.0331 |
| AGATACAT | 0.0245 |
| TGACAAAA | 0.126 |
| TGCGCCCA | -0.225 |
| ACCCCTCA | -0.264 |
| GGAAAGTA | 0.0581 |
| CCCGTCAG | -0.276 |
| AACTGTGA | 0.123 |
| GAACCTGA | -0.0868 |
| CAGCTTAA | 0.0492 |
| GGACAACA | 0.108 |
| ACCTTCGA | -0.0968 |
| ACACGACT | -0.0116 |
| CATCGCAA | -0.152 |
| CTATATTA | 0.267 |
| ATGACCCA | -0.243 |
| CCCATAGC | -0.283 |
| CCAAATTC | 0.0211 |
| ATTGTAGG | 0.131 |
| CCCTGGAG | -0.353 |
| AGGGGACA | -0.194 |

| Sequence | PBM E-score |
| --- | --- |
| CCCCCGTA | -0.366 |
| GTCGGGAA | 0.0333 |
| TACTTCAA | 0.141 |
| CTACTGAA | 0.0164 |
| CGGGCAAG | -0.0502 |
| CCTACCTC | -0.208 |
| CAAGGTAC | -0.0326 |
| CATGTCTC | -0.0791 |
| ATAATTGC | 0.11 |
| CAACGTAA | -0.0874 |
| CGATAAGA | 0.132 |
| CGTCTGAG | 0.0123 |
| GGTGGCAA | -0.21 |
| AGAGTTGG | -0.207 |
| ATACGTAC | -0.0829 |
| ATTACAGA | 0.213 |
| AAGAAGTG | -0.0173 |
| CGTTCATC | 0.106 |
| GACTTCTA | -0.124 |
| AGGCAGAC | -0.139 |
| ACTCGACT | -0.146 |
| GAGCCCAC | -0.301 |
| CCTGAACA | 0.0242 |
| ACGGTGGA | -0.21 |
| CCTAAGTC | -0.147 |

Some of the entries above, reformatted.
TACTTCAA
  PBM E-score = 0.141
CCTACCTC
  PBM E-score = -0.208
CAAGGTAC
  PBM E-score = -0.0326

Next part

| Sequence | PBM E-score |
| --- | --- |
| AGTGAAAT | 0.00869 |
| CTGGCCTC | -0.139 |
| CCTCTAAG | -0.112 |
| GGGCGTAA | -0.197 |
| ACTTCACC | 0.18 |
| AGCTTATA | -0.0237 |
| CCCTGAGC | -0.00518 |
| CATTGGAA | 0.102 |
| ACCATCAG | -0.101 |
| CGGGGGAC | -0.259 |
| CAAAGTAG | -0.0439 |
| AATCTCCA | -0.116 |
| ACTATAGG | -0.0523 |
| GAGATAGA | 0.152 |
| TCCATGGA | 0.188 |
| GGCCTCTA | -0.303 |
| TAGTGTAA | 0.14 |
| AAATGCAC | -0.0233 |
| TATGCCCA | -0.0906 |
| ATCAAGTG | -0.132 |
| CCATATTA | 0.117 |
| AGGAGTTC | -0.14 |
| AACTTCAG | 0.0506 |
| GGTTGAAA | 0.102 |
| AAGTGTAC | -0.143 |

| Sequence | PBM E-score |
| --- | --- |
| GTGATTGA | 0.128 |
| CGCAAACC | 0.06 |
| AAACCCGA | 0.215 |
| ACCTGCTG | 0.0141 |
| AAGGAAGA | 0.0122 |
| CCCATGTA | -0.0592 |
| CGCGAGAC | 0.0392 |
| AGGCATGC | 0.02 |
| AGCTTTCA | -0.0512 |
| ACCCCGAT | -0.132 |
| AATGGCCA | -0.256 |
| CAAACAGC | -0.0581 |
| AGCGTCGA | 0.0108 |
| AAGTGCTA | -0.224 |
| GGTTGGAC | -0.0104 |
| CGACGGTC | -0.215 |
| TGGCTACA | -0.035 |
| AAGGGAGA | -0.221 |
| CAAACAAA | 0.0682 |
| CACCTTGC | -0.182 |
| GCTGCATA | 0.0945 |
| GATCATGA | 0.0935 |
